For experiment [1], the target named is FLASH-GST fusion protein, the last 103 residues of FLASH (amino acids 1880-1982) (human) (UniProt Q9UKL3). Put plainly: pull-down; GST fusions FLASH 1880-1982 or YARP 2117-2213 incubated with 35S-labelled in vitro translated NPAT (last 131 amino acids), complexes purified on glutathione beads, SDS-PAGE and radiography; 100 mM KCl; only the target purified.
Experiment [2] deals with T1, C-terminal fragment of Yin Yang 1-Associated Protein-Related Protein (YARP), residues 2149-2209 (human) (UniProt Q3T8J9).
T1 sequence: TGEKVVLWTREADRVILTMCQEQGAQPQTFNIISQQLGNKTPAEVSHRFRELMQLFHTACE
Put plainly: NMR titration; 1H-15N HSQC of 15N-labelled YARP fragment (200 uM) with step-wise addition of the NPAT peptide (100 uM, two fold molar excess of YARP analysed; equimolar mixtures precipitated); 25 mM TRIS-HCl, 250 mM KCl, pH 6.2, 50 mM Arg+Glu, 40 mM TCEP, 298 K; both purified.

Sequences of proteins named here, by UniProt entry; tags and fusion partners are left off. Residues count along the entry.
UniProt Q9UKL3, residues 1880-1982: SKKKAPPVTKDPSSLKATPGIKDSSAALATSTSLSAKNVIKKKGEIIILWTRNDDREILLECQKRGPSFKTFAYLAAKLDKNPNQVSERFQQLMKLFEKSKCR

These are yes or no findings as the source states them, for the method shown. For some assays here: In cells and extracts the contact can be indirect. Some binding calls cover weakened binding; strength is not graded here.

The record followed here is paper PMC7432317, “Structural Analysis of the SANT/Myb Domain of FLASH and YARP Proteins and Their Complex with the C-Terminal Fragment of NPAT by NMR Spectroscopy and Computer Simulations” (International Journal of Molecular Sciences, 2020).

B1: NPAT, the last 131 amino acids, L1421K (domain or fragment, UniProt Q14207 1297-1427)
chain: EDSSTSKVMVPPVTPDLPACSPASETGSENSVNMAAHTLMILSRAAISRTTSATPLKDNTQQFRASSRSTTKKRKIEELDERERNSRPSSKNLTNSSIPMKKKKIKKKKLPSSFPAGMDVDKFLKSLHYDE
modifications: 35S label
B1: the binding entry in experiment [1] is “binds”.

B2: NPAT, the last 131 amino acids, D1426N/E1427Q (domain or fragment, UniProt Q14207 1297-1427)
chain: EDSSTSKVMVPPVTPDLPACSPASETGSENSVNMAAHTLMILSRAAISRTTSATPLKDNTQQFRASSRSTTKKRKIEELDERERNSRPSSKNLTNSSIPMKKKKIKKKKLPSSFPAGMDVDKFLLSLHYNQ
modifications: 35S label
As for B2, the binding entry in experiment [1] is “binds”.

B3: NPAT, the last 131 amino acids, wild type (domain or fragment, UniProt Q14207 1297-1427)
chain: EDSSTSKVMVPPVTPDLPACSPASETGSENSVNMAAHTLMILSRAAISRTTSATPLKDNTQQFRASSRSTTKKRKIEELDERERNSRPSSKNLTNSSIPMKKKKIKKKKLPSSFPAGMDVDKFLLSLHYDE
modifications: 35S label
With B3, the binding entry in experiment [1] is reported as “binds”.

B4: NPAT, the last 131 amino acids, L1420K (domain or fragment, UniProt Q14207 1297-1427)
chain: EDSSTSKVMVPPVTPDLPACSPASETGSENSVNMAAHTLMILSRAAISRTTSATPLKDNTQQFRASSRSTTKKRKIEELDERERNSRPSSKNLTNSSIPMKKKKIKKKKLPSSFPAGMDVDKFKLSLHYDE
modifications: 35S label
On to B4, for which the binding result in experiment [1] is “binds weakly”.

B5: NPAT peptide, the last 31 residues of NPAT (1397-1427) (peptide)
peptide: KKKKIKKKKLPSSFPAGMDVDKFLLSLHYDE
notes: Free N-terminus, carboxyl at C-terminus; also called C-terminal NPAT peptide; source: synthetic peptide (Fmoc solid phase synthesis, RP-HPLC purified)
Take B5: in experiment [2], the binding result is recorded as “binds”.
